PubChem BioAssay AID652259, Drosophila RNAi Screening Center – 2013
The screen tested about 22,000 reagents; shown is a random part of those that have a named target and a result. Over the whole deposit, 233 (1.1%) were called active. 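Light values are raw, unnormalised plate reads; the ratio scores behind the reporter calls were not deposited.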 Entries without a mark were called inactive. A plus sign joins genes that one reagent is predicted to hit. Reagent sequences are not shown. Not stated in the record: the amount of reagent, the time to read-out, the dose of the treatment.

- Assay: 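Identify new Wingless signalling regulators in fly cells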 (primary screen)
- Cells: Drosophila clone 8 imaginal disc epithelial cells
- Reagent: long dsRNA against Drosophila genes
- Conditions: pathway stimulated by co-transfected Wingless expression plasmid
- Read-out: 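Firefly luciferase from a tcf-site Wingless reporter, measured alongside co-transfected Renilla luciferase that tracks transfection; pathway stimulated by a Wingless plasmid; the firefly-to-Renilla ratio is not deposited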
- Reading the numbers: firefly reporter light: higher = more Wg reporter light, before normalisation; Renilla control light: higher = more transfected or surviving cells
- Hit rule: 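a knock-down is a candidate when at least two out of four statistical tests show it departing from its plate mean; one test alone signals a weak candidate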
- Meaning of the calls: active = candidate regulator (raises or lowers reporter); inactive = not a candidate

predicted target	amplicon	reporter change call, replicate 1	firefly reporter light, replicate 1	firefly reporter light, replicate 2	Renilla control light, replicate 1	Renilla control light, replicate 2
ksh (kish)	DRSC19554		17949		9008	
CG9471	DRSC16499		12324		3275	
CG3704	DRSC18174		26420		18268	
CG3704	DRSC18645		26150		20397	
Tps1 (Trehalose-6-phosphate synthase 1)	DRSC00269		11110		4490	
CG13398	DRSC02268		1782	6666	759	3072
Lint-1 (l(3)mbt interacting protein 1)	DRSC19822		2192	5080	1031	2616
Rcd1 (Reduction in Cnn dots 1)	DRSC07116		10978		869	
CG8646	DRSC07230		8685		1674	
CG13443	DRSC06403		6596		2428	
CG15822	DRSC08482		5961		2873	
CG15822	DRSC08483		4908		2248	
eIF4E6 (eukaryotic translation initiation factor 4E6)	DRSC14853		4374		2105	
chic (chickadee)	DRSC03507		2873	6491	925	2659
RpS25 (Ribosomal protein S25)	DRSC16837		13064		3747	
CG4702	DRSC15626		7984		2563	
Lrpprc2 (Leucine-rich pentatricopeptide repeat containing 2)	DRSC18605		3032	6612	925	2626
TotM (Turandot M)	DRSC02355		3441	7259	1484	2649
Golgin84 (Golgin-84)	DRSC15269		12647		11344	
CG8060	DRSC07064		15456		4107	
neo (neyo)	DRSC16316		2595	6141	1222	2061
CG1703	DRSC19764		1976	4582	762	1888
CG14969	DRSC08428		5996		2441	
nopo (no poles)	DRSC06918		13451		4573	
kra (krasavietz)	DRSC12320		6497		1905	
CG7791	DRSC04891		10352		2329	
lncRNA:CR43270 (long non-coding RNA::CR43270)	DRSC11575		3453		1313	
CG10395	DRSC04840		15344		3175	
lncRNA:CR31044 (long non-coding RNA::CR31044)	DRSC22451		6.86e5	7.09e5	3.08e5	2.82e5
Indy-2 + CG33934	DRSC15685		2404	7341	1232	2294
Indy-2 + CG33934	DRSC15686		13589		3933	

The list goes on; the last 10 above are carried over.
predicted target	amplicon	reporter change call, replicate 1	firefly reporter light, replicate 1	firefly reporter light, replicate 2	Renilla control light, replicate 1	Renilla control light, replicate 2
CG1703	DRSC19764		1976	4582	762	1888
CG14969	DRSC08428		5996		2441	
nopo (no poles)	DRSC06918		13451		4573	
kra (krasavietz)	DRSC12320		6497		1905	
CG7791	DRSC04891		10352		2329	
lncRNA:CR43270 (long non-coding RNA::CR43270)	DRSC11575		3453		1313	
CG10395	DRSC04840		15344		3175	
lncRNA:CR31044 (long non-coding RNA::CR31044)	DRSC22451		6.86e5	7.09e5	3.08e5	2.82e5
Indy-2 + CG33934	DRSC15685		2404	7341	1232	2294
Indy-2 + CG33934	DRSC15686		13589		3933	
Cad74A (Cadherin 74A)	DRSC10636		7562		3045	
Tm1 (Tropomyosin 1)	DRSC13082		4432		1276	
Tm1 (Tropomyosin 1)	DRSC13083		4619		2216	
Tm1 (Tropomyosin 1)	DRSC16886		5740		2371	
Ir94h (Ionotropic receptor 94h)	DRSC15232		14166		13837	
Cip4 (Cdc42-interacting protein 4)	DRSC08091		4248		1916	
Cip4 (Cdc42-interacting protein 4)	DRSC08469		3864		1894	
Cip4 (Cdc42-interacting protein 4)	DRSC21740		7.38e5	7.84e5	3.41e5	3.29e5
CG10035	DRSC14177		14968		3120	
tej (tejas)	DRSC07219		6731		1360	
Mrgn1 (Mahogunin ring finger 1)	DRSC20223		2176	6587	800	2241
Ns4 (Nucleostemin 4)	DRSC03199		11842		3202	
CG12768	DRSC11680	Wg reporter activity raised (active)	22808		3264	
Srp54 (Splicing regulatory protein 54)	DRSC03442		5667		2154	
CG12862	DRSC06202		6375		2152	
RpL5 (Ribosomal protein L5)	DRSC03801		1782	4630	564	1724
Hmt-1 (Heavy metal tolerance factor 1)	DRSC15555		3856	6428	1400	1305
CG34148 + P5CDh2	DRSC13519		3210		1632	
CG18563	DRSC02676		3261	8648	1572	4069
CR41501 (pseudo)	DRSC07785		19927		10131	
CG4278	DRSC02741		9976		2948	
S-Lap5 (Sperm-Leucylaminopeptidase 5)	DRSC06732		5243		2152	
Ocrl (Oculocerebrorenal syndrome of Lowe)	DRSC18576		4058	7079	1655	3249
r2d2	DRSC03014		1666	4768	855	3113
CG17362	DRSC10267		5131		2474	
Nup37 (Nucleoporin 37kD)	DRSC14419		21213		18368	
PCID2 (PCI domain-containing protein 2)	DRSC10822		2345		1265	
Axud1 (AXIN1 up-regulated 1)	DRSC00270		2155	10134	840	2998
HGTX	DRSC09319		2872		1530	
HGTX	DRSC11181		5132		2850	
VhaAC39-1 (Vacuolar H[+] ATPase AC39 subunit 1)	DRSC18242		3799	9452	1744	3174
Cyp49a1 (Cytochrome P450 49a1)	DRSC06737		4500	11272	841	3021
Cyp49a1 (Cytochrome P450 49a1)	DRSC07367		3144	7712	845	2425
CG30495	DRSC06703		1675	6532	672	2886
CG33098	DRSC22903		4.91e5	5.66e5	1.95e5	1.77e5
CG11349	DRSC08179		1094	6828	896	2817
gprs	DRSC06761		4876		2016	
CG12581	DRSC12206		9330		3802	
CG12581	DRSC12207		16346		7273	
E5	DRSC13000		2112		861	
E5	DRSC16585		13764		931	
CG13862	DRSC14712		35360		6272	
